This sample is rich in variants without activity.
B1: tRNA (parent)
chain: GUUCCGUUGGCGUAAUGGUAACGCGUCUCCCUCCUAAGGAGAAGACUGCGGGUUCGAGUCCCGUACGGAACG

Variants of: B1
Test: yeast fitness relative to wild type (ratio to wild type); higher = fitter; tRNA-Arg(CCU), competitive growth, 37 C, YPD
Summary of the method: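 Genotype frequency changes were the basis for Darwinian fitness relative to wild type. The frequencies came from 100-nucleotide paired-end sequencing of gene amplicons from the start population and each end population of pooled yeast strains with tRNA-Arg(CCU) gene variants at the native locus. Competition ran in YPD at 37°C for 24 hours in six replicates, genotypes needed ≥ 100 starting reads, and estimates < 0.5 were set to 0.5.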
For GUGCUGUUGGCGUAAUGGUAACGCGUCUCCCUCGUAAGGAGAAGACUGCGGGUUCGAGUCCCGUACGGAACG, the yeast fitness was ≤ 0.5. With GUUCGGUUGGCGGAAUGGUAACGCGUCUUCCUCCUAAGGGGAAGACUGCGGGUUCGAGUUCCGCGCGGAACG the yeast fitness was ≤ 0.5. Variant GUUCUGUUGACGUAAUGGUAACGCGUCUCCCUCCUAAGGAGAAGACUGCGGGUUCGAGUCCCGUACGGAACG has a yeast fitness of 0.702. In the case of GAUCCGUCGGCAUAAUGGUAACGCGUCUCCCUCCUAAGGAGUAGACUGCGGGUUCGAGUCCCGUACGGAACG, the yeast fitness is reported as ≤ 0.5. In the case of GUUCCGUUGGUGUAAUGGUAACGCGUCUCCCUUCUGAGAAGAAAACUGCGGGUUGGAGCCCCGUACGGAACG, the yeast fitness is reported as ≤ 0.5. For GUUCCGUUGGUGUAAUGGUAACGUGUCUGCCUCCUAAAGCGAAGACUGCGGGUUCGAGUCACGUGCGGAACG, the yeast fitness was ≤ 0.5. For GUUCCGUGGGCGUAAUGGUAACGCGUCUCCCUCCUAACGAGAACACUGCGGGUUCGAGUCGCGUACGGAACG, the yeast fitness was ≤ 0.5. For GUUCCGUUGCCGUAAUGGUAAAGGGUCUCCCUCCUAAGGAGAAGACUGCGGGUUCGUGUCCCGUACGGAACG, the yeast fitness was ≤ 0.5. For GUUCCGUUCGCGUAAUGGUAACGCGUCUCCCUCGUAAGGAGAAGACCGUGGGUUCGAGUCCCGUACGGAACG, the yeast fitness was ≤ 0.5. For GUUCGGUUGGCGUAAUGGUACCGCGUCUCCCUCCUAAGGAGAUGACUGCGGGUUCGAGUCCCGUACGGAACG, the yeast fitness was ≤ 0.5. With GUUCCGUUGGCGUAAUGGUAACGCCUCUCCGUCCUAAGGAGAAGACUGCGGGUUCGAGUCCCGUACGGAACG the yeast fitness was 0.704. In the case of GUACCGUUGGCGUAAUGGUAACGCGUCUCCCUCCUGAGGAGAAGACUGCGGGUUCGAGUCCCGUACGAACCG, the yeast fitness is reported as 0.566. In the case of GUUCCGUUGGCAUAAUGGCAACGCGUCUCCCUUUUAACGAGAAGACUGCGGGUUCGAGUCCCGUACGGAACG, the yeast fitness is reported as ≤ 0.5. Variant GUUUCGUUGGCGUAAUGGUAACGCGUCUCACUCCUAAGGAGAAGACUGCGGGUUCGAGUCCCGUAUGGAACG has a yeast fitness of 0.82. In the case of GUUCCGUUGGCGUAAUGAUGACGCGUCUCCCUCCUAAGGAGAAGAUUGCGGGUCCGACUCCCGUACAGAACG, the yeast fitness is reported as ≤ 0.5. In the case of GUUCCGUAGGCGUAAUGGUAACGCGUCUCCCUCCUAAGGAGACGACUGCGGGUUCGAGUCGCGUACGGAACG, the yeast fitness is reported as ≤ 0.5. With GUUCCGUUGGCGUAAUGGUAACGCGUCUCCCUCCUAAGGAGAAGACUGCGGGUUCGAGUCACGUUCGGAACG the yeast fitness was 0.604. For GUUCCGUUGACGUAGUGGUAACGCGUCUCCCUCGUAAGGAGAAGACUGCGGGUUCGAGUCCCGUACGGAACG, the yeast fitness was ≤ 0.5. For GUUCCCUUCGCGUAAUGUUAACGCGUCUCCCUCCUAAGGAGAAGACUGCGGGUCCGAGUCCCGUACGGAACG, the yeast fitness was ≤ 0.5. With GUUCCGUUGGGGUAAUGGUAACGCGCCUUCCUCUUAAGGAGAAGACUGCGGGUUCGAGUCCAGUAUGGAACG the yeast fitness was ≤ 0.5. For GGUCCGUUGGCGUAAUGGUAACGCGUCGCCCUCCUAAGGAGGAGACUGCGGGUUCGAGUCCCGUACGUAACG, the yeast fitness was ≤ 0.5. For GUUCCGUUGGUGUAAUGAUAAUGCGUCUCCCUCCUUAGGAGAAGACUGCGGGUUCGAGUCCCGUACGGAACG, the yeast fitness was ≤ 0.5. In the case of GUUACGUUGGCGUAAUGGUAACGCGUCUCCCUCCUAAGGAGAAGACUGCGGGUUGGAGUCCAGUACGGAACG, the yeast fitness is reported as ≤ 0.5. With GUUCCGUUGGCGUAAUGGUAUCGCGUCUCCCACCUAAGGAGAAGACUGCGGGUUGGAGUCCCGUACGGAACG the yeast fitness was ≤ 0.5. For GUUCCGUUGGCGUAUUCGUAACGCGUCUCCCUCCUAAGGAGAAGUCUGGGGGUUCGGGUCCCGUGCGGAACG, the yeast fitness was ≤ 0.5. With GUUGCGGUGGCGUAAUGGUGACGCGUCUCCCUCCUAAGGAGAAGACUGCGGGUUCGAGUCCCGUACGGAACG the yeast fitness was ≤ 0.5. For GUUUCGUUGGUGUAAUGGUAACCCGUCUCCCUCCUAAGGAGACGACUGCGGGUUCGAGUCCCGUACGGAACG, the yeast fitness was ≤ 0.5. With GUUUCGUUGGCGUAAUGGUAACGCGUCUCCCUCCUAAGGAGGAGACUGCGCGUUCGAGGCCCGUACGGAACG the yeast fitness was ≤ 0.5. In the case of GUUCCGUUGGCGUAAUGGUAACGCGUCUCCCUCCUAAGGAGAAGACUGCGGGUUCGAGUACCGUUCGGAGCG, the yeast fitness is reported as ≤ 0.5. GUUCCGUUGGAGUAAUGGUAACGCGUUUCCCUCCUAAGGAGAACACUGCGGGUUCGAGUCCCGUACGGAACG gave a yeast fitness of 0.572. GUUCCGUUGGGGUAAUGGUAACCCGUCUCCCUCCUAGGGAGAAGACUGCGGGUUCGCGUCCCGUACGGAACG gave a yeast fitness of 0.979. Variant GUUCCGUUGGUGUAAUGGUAUCGCGUCUCCCUCCUAAGGAGAAGACUGCGGGUUAGAGUCCCGUACGGAACG has a yeast fitness of 0.632. For GUUCCGUUGGCGUAAUGGUCACGCGUCUCCCUCAUAAGGAGAAGACUGUGGGUUCGAGUCCCCUACGGAACG, the yeast fitness was ≤ 0.5. With GUUCCGUUGGCCUAAUGGUAACGCGUCUCCCGGCUAAGGAGAAGACUGCGGGUUCGUGUCCCGUACGGAACG the yeast fitness was ≤ 0.5. In the case of GUUCCGUUGGCGUAAUGGUAACGCGUCUCCCUCAUAAGGAGAAGACUGCGAGUUCGAGUCCCAUACGGAACG, the yeast fitness is reported as ≤ 0.5. In the case of GUUCCGUUGGCGUAAUGGUAACGCGUCUCCCUCCUAAGGAGAAGACUGCGGGUACGAGUCCCAUACGCAACG, the yeast fitness is reported as ≤ 0.5. For GUUCCGUUGGCGUAAUGGUAACGCGUCUCCCUCCUAAGGAGAGGACUGCGGGUCCGAGUCCCGUACGGAACG, the yeast fitness was 0.905. In the case of GUUCCGUUGGCGUAAUGGUAACGCGUGUCCCUCCUAAGGAGAAGACUGCGGGUUCGGGUGCCGUACGGUACG, the yeast fitness is reported as ≤ 0.5.

Reference: the RNAGym collection of RNA variant scans (doi:10.1126/science.aae0568)
